Values of other authors as cited in patent US20170218449A1, “ANALYTICAL METHODS AND ARRAYS FOR USE IN THE SAME” (SENZAGEN AB, priority 2010, published 2017).
At least one compound was matched to its structure with a doubt left.

Tested on: human
Conditions: Human Maximation Test; information derived from [17]; cited from earlier work

CC1(C)S[C@@H]2[C@H](NC(=O)Cc3ccccc3)C(=O)N2[C@H]1C(=O)O [Penicillin G]
HMT: +
